Source: PMC7332983
Results are given in words; binding and its absence hold for the method and conditions named. Binding seen in cells or lysates may run through a third protein. Here binding means that the protein was enriched with, or labelled near, the bait; the list need not be complete. Sequences can lack the tags named with a protein.

Protein sequences, listed by entry. Tags and fused reporters are not part of them.
UniProt Q15154: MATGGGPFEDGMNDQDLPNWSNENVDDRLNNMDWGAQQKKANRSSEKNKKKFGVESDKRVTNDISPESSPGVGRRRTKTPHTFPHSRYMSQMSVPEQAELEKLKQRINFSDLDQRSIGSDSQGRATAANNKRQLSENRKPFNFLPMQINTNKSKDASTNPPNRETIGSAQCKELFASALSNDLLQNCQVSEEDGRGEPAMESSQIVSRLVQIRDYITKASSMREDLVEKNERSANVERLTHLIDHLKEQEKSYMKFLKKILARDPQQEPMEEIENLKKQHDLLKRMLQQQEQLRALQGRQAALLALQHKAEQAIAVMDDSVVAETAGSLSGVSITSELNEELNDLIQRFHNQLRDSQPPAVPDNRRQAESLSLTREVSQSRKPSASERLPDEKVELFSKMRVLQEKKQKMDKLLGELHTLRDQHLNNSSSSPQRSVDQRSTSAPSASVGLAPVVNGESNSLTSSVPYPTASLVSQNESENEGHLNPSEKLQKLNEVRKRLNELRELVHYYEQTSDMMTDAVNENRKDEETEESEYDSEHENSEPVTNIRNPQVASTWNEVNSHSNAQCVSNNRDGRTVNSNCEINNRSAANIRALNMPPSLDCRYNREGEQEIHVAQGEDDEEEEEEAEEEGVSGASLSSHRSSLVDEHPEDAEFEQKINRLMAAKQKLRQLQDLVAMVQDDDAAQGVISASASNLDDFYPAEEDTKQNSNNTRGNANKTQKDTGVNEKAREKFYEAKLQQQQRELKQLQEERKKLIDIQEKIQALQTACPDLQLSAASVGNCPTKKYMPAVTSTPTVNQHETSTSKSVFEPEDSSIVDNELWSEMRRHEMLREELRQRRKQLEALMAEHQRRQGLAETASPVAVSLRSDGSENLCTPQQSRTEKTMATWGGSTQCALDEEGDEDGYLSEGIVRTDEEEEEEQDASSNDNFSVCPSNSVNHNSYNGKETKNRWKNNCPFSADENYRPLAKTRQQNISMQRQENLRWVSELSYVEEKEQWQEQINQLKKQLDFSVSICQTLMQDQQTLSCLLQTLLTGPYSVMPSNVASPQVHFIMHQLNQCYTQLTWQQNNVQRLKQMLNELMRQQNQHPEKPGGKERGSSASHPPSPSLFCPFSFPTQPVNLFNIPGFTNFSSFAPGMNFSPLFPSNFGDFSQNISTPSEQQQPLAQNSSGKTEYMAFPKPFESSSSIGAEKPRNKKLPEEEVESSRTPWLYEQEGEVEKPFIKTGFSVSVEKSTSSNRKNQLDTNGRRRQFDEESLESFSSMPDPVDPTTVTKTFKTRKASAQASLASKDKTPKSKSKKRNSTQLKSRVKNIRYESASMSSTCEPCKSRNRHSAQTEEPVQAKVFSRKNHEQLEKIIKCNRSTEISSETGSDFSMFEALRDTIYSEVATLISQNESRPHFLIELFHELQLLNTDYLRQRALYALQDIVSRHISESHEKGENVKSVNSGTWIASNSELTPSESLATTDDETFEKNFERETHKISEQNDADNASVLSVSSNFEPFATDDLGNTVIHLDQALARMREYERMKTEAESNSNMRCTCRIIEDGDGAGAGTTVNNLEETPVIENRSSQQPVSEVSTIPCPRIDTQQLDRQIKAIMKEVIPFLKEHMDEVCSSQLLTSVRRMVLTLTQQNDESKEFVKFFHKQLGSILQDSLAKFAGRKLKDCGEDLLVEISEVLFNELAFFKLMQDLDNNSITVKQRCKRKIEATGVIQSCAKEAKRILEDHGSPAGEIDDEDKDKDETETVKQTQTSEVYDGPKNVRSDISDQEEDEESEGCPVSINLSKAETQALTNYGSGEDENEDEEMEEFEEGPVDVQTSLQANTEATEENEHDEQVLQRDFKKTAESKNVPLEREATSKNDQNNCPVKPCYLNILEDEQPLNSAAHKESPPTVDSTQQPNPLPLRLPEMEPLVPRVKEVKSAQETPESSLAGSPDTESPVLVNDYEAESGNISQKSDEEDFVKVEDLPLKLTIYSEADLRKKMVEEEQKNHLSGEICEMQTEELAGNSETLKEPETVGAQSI

Molecular target: T1, 3xFLAG-tagged full-length trichoplein (TCHP), FLAG at the N-terminus (human) (UniProt Q9BT92)
T1 sequence: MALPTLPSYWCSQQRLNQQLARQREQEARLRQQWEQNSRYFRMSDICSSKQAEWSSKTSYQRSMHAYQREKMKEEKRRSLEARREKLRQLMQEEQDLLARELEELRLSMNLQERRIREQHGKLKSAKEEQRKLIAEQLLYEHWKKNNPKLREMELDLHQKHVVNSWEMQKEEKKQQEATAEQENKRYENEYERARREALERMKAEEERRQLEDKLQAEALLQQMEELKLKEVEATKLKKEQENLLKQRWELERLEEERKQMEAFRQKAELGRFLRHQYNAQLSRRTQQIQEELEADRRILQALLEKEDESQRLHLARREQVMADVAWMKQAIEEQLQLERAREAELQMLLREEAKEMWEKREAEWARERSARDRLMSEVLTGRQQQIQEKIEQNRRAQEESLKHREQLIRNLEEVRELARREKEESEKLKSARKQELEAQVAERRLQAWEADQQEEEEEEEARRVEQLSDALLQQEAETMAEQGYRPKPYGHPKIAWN
Test: affinity purification with mass spectrometry; anti-FLAG co-immunoprecipitation from HEK293 cells with FLAG-tagged TCHP as bait, against a control experiment; gel bands digested with trypsin, nano-ESI-HPLC-MS/MS, label-free quantitation

binding: binds
Substance: PCM1, centriolar satellite protein, endogenous in HEK293 cells (from UniProt Q15154 1-2024)
